# Results: the supplement of paper PMC11732987, “Enantioselective OTUD7B fragment discovery through chemoproteomics screening and high-throughput optimisation” (Communications Chemistry, 2025)
# Chains of the proteins cited; added tags and fusions are not shown. Lines headed by an entry give the natural chain unless they say otherwise; changes in a name come on top. Residues count along the entry.
# UniProt Q96L73: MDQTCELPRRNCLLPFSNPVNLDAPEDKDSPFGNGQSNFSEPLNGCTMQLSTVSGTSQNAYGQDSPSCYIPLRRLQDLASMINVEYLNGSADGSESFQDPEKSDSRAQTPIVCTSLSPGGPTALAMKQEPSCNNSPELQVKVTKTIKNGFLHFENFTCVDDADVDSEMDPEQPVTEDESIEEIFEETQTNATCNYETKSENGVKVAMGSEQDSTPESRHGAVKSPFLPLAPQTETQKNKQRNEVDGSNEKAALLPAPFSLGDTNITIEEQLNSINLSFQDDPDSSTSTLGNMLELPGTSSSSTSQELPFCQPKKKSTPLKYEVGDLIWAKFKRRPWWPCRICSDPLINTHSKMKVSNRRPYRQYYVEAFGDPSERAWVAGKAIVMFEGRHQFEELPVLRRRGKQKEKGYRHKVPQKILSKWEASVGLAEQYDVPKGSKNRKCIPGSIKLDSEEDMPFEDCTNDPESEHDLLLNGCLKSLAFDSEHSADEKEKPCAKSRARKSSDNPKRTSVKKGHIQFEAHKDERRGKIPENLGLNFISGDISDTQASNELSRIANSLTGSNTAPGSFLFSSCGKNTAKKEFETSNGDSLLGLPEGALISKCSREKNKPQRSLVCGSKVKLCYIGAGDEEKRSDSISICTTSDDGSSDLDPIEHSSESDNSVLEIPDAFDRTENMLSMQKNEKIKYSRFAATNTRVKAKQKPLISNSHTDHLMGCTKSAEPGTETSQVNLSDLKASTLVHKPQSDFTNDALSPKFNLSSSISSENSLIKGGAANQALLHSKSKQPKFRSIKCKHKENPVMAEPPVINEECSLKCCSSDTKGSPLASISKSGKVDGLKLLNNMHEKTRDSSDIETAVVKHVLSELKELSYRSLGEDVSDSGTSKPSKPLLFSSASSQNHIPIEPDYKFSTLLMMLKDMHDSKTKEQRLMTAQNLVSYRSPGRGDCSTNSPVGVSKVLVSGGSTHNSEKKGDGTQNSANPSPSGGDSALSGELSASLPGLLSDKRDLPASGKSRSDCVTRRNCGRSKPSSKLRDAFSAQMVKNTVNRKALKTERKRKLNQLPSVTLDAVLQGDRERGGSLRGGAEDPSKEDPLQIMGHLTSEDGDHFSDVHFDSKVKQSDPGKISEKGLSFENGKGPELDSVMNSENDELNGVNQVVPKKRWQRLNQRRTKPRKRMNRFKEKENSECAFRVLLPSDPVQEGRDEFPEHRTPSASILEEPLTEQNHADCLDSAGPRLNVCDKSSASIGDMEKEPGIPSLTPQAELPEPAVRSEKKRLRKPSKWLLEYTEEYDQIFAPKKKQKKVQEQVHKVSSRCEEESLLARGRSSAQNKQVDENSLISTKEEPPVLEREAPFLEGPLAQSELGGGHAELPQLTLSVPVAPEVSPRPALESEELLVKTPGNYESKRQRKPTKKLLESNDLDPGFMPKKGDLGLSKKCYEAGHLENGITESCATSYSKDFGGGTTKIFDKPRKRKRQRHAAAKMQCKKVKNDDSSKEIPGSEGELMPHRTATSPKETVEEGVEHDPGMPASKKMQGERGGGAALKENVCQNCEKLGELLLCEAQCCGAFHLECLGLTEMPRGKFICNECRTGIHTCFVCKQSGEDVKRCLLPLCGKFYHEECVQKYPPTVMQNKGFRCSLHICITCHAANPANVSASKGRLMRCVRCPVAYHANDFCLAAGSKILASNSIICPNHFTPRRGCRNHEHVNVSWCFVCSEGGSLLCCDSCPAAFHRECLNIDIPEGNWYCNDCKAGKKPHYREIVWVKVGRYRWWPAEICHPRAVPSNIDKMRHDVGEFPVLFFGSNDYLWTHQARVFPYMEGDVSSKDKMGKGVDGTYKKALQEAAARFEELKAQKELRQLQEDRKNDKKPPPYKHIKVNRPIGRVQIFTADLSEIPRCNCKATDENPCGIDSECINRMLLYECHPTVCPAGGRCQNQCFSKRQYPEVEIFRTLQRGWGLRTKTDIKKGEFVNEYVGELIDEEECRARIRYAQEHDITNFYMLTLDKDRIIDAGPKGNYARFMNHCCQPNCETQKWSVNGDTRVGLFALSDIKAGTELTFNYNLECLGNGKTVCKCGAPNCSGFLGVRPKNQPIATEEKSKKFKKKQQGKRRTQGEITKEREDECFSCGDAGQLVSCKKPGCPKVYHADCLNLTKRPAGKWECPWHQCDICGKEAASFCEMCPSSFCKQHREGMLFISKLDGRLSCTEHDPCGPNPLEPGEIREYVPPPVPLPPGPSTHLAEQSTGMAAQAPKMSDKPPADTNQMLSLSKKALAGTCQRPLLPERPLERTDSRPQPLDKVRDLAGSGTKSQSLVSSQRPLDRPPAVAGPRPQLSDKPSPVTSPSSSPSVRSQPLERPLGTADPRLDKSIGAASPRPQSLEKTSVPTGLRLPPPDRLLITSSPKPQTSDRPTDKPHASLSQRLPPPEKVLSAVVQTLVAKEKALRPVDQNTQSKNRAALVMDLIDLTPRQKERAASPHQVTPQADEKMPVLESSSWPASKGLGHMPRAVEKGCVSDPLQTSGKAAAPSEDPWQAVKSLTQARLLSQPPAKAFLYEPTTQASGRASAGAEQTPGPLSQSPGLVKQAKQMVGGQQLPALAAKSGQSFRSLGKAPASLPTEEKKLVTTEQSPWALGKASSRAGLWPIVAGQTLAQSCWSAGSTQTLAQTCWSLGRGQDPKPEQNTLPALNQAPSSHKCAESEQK
# UniProt P49757: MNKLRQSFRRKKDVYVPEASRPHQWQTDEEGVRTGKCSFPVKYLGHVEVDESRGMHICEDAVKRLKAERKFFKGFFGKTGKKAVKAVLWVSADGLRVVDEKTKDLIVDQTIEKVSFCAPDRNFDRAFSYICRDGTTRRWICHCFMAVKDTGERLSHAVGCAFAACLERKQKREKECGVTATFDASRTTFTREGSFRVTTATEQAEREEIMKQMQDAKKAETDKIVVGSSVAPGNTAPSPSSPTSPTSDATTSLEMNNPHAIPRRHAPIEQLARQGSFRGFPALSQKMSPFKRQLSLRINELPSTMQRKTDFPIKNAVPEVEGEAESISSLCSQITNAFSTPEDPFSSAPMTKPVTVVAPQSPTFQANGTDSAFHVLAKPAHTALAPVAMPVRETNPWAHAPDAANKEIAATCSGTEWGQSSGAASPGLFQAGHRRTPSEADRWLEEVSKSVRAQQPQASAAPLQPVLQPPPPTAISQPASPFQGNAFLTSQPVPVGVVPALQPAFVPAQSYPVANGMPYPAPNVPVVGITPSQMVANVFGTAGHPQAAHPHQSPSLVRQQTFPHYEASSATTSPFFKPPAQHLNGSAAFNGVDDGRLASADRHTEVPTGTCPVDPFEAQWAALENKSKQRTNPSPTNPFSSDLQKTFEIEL
# UniProt Q5W0B1: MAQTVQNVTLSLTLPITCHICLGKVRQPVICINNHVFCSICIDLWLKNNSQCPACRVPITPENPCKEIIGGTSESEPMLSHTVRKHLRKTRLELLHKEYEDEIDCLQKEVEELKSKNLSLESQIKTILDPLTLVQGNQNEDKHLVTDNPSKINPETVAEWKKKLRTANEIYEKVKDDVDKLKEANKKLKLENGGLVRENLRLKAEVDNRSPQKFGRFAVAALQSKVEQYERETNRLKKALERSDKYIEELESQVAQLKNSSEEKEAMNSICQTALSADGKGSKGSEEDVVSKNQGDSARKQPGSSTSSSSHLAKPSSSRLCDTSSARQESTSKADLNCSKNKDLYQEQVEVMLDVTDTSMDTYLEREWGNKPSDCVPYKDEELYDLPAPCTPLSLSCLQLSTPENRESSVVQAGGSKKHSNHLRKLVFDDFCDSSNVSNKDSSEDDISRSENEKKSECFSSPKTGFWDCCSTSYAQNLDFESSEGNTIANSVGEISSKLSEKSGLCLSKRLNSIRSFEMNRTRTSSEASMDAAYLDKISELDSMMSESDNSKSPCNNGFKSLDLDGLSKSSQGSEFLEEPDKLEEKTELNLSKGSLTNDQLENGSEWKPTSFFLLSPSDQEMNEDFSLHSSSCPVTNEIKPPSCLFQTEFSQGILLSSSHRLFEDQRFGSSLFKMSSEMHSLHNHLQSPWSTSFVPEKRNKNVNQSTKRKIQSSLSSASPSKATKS
# UniProt Q9Y6R0: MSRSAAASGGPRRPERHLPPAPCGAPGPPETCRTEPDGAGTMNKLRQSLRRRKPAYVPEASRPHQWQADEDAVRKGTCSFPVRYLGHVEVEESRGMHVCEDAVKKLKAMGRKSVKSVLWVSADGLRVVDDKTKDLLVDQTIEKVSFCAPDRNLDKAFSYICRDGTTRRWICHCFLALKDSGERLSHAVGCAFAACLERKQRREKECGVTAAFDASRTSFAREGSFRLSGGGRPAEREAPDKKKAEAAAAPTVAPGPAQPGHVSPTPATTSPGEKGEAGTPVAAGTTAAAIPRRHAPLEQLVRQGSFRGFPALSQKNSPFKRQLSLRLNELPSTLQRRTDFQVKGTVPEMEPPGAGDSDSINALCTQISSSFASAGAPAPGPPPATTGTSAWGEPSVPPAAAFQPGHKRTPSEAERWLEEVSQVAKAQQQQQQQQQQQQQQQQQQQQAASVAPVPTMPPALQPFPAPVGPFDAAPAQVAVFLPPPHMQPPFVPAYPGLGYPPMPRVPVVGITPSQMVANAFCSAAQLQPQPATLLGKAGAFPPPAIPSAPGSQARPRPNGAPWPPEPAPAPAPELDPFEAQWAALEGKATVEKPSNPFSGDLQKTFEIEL
# UniProt Q9BZF3: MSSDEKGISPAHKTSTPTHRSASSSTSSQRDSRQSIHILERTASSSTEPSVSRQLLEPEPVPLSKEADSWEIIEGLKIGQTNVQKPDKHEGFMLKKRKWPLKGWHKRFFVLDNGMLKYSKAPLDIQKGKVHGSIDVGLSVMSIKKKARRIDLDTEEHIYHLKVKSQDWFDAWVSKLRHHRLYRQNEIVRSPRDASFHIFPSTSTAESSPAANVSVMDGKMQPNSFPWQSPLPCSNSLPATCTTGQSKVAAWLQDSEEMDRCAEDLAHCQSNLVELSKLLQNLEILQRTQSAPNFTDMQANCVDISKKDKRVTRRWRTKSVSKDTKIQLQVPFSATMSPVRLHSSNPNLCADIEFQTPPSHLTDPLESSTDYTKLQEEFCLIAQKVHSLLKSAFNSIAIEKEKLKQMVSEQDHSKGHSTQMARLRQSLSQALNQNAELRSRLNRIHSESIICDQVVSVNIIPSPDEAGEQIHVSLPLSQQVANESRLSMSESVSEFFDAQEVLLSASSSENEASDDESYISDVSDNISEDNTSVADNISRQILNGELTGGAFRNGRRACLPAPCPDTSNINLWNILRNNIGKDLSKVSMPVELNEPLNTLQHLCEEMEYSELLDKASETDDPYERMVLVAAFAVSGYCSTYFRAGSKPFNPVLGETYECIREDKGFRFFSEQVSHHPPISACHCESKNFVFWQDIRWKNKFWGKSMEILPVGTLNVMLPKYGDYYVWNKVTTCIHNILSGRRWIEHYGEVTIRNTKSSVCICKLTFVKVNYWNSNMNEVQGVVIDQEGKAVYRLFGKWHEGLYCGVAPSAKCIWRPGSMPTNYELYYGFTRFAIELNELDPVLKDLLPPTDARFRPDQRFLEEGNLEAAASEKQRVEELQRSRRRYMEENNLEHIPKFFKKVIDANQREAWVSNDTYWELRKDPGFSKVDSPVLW
# UniProt P10588, 307-330: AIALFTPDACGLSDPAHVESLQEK
# UniProt Q9BW27: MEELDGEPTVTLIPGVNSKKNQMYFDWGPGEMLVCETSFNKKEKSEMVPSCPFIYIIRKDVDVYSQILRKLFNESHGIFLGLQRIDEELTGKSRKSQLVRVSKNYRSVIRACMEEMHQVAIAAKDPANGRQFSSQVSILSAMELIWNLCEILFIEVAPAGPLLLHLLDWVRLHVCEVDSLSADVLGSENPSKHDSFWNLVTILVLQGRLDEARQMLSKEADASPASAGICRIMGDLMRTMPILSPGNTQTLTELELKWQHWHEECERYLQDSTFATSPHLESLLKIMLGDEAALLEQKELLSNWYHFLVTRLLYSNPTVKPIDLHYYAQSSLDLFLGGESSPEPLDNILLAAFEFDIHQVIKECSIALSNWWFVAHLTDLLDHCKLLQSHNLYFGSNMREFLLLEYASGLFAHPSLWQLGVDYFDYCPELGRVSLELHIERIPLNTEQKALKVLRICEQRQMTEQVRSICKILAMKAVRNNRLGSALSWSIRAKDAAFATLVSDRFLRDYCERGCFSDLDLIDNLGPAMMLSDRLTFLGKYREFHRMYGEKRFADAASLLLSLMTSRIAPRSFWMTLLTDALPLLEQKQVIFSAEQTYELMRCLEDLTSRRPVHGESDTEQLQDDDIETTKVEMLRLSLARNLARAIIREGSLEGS
# UniProt Q969T7: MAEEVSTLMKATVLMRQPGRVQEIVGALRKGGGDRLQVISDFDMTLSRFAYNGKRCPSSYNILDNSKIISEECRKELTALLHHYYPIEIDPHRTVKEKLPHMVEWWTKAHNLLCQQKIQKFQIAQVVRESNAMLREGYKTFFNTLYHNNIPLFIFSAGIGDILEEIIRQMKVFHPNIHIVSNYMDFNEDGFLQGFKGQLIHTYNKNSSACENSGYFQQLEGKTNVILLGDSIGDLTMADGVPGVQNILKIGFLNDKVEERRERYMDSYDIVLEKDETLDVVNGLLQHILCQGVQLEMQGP
# This is one part of the list. The data scatter; read single values as rough.
# Compound: ClCC(=O)N[C@H]1CCCc2ccccc12
# Experiment: log2 mean competition ratio of IA-DTB cysteine labelling (DMSO/compound) (log2 ratio); higher = stronger cysteine engagement by compound
# Conditions: 200 µM; treatment time: 4 h; cell line lysate: HEK293T
# Description: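 IA-DTB competitive cysteine chemoproteomics in HEK293T RIPA lysate. Lysates were treated with compound 29 or 30 at 50 or 200 µM for 4 h, then IA-DTB (500 µM, 1 h), trypsin-digested, NeutrAvidin-enriched and analysed by diaPASEF. Competition ratio = intensity DMSO / intensity compound (n=4 treated, n=64 DMSO); binding: mean log2 CR ≥ 1 and p ≤ 0.05 plus QC filters. Target is the cysteine site.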
row,Target,log2 mean competition ratio
1,ODF2L C16 (UniProt Q9ULJ1),0.124
2,NUP155 C974 (UniProt O75694),-0.0739
3,NSD3 C1292 (UniProt Q9BZ95),-0.109
4,OPA3 C164 (UniProt Q9H6K4),0.0311
5,OCRL C811 (UniProt Q01968),0.103
6,NSD1 C1185 (UniProt Q96L73),0.0766
7,NSD2 C594 (UniProt O96028),-0.0149
8,NUMB C176 (UniProt P49757),-0.0959
9,OBI1 C506 (UniProt Q5W0B1),0.169
10,NUMBL C206 (UniProt Q9Y6R0),0.0322
11,NRBF2 C155 (UniProt Q96F24),-0.049
12,NR1D2 C374,-0.0833
13,NUMA1 C375 (UniProt Q14980),-0.162
14,NUP98 C1347 (UniProt P52948),-0.264
15,OGDH C283 (UniProt Q02218),0.249
16,NUP35 C243 (UniProt Q8NFH5),0.213
17,NSD1 C342 (UniProt Q96L73),0.383
18,NOTCH2 C1252 (UniProt Q04721),0.299
19,NUP205 C1216 (UniProt Q92621),-0.0756

row,Target,log2 mean competition ratio
1,NUP153 C404 (UniProt P49790),0.123
2,NPAT C1002 (UniProt Q14207),0.169
3,NT5C3A C120 (UniProt Q9H0P0),0.252
4,OSBPL6 C379 (UniProt Q9BZF3),-0.313
5,OBSL1 C13 (UniProt O75147),-0.0152
6,NVL C309 (UniProt O15381),0.124
7,NR0B1 C255,0.0653
8,OGFR C443 (UniProt Q9NZT2),0.135
9,NPLOC4 C130,-0.00353
10,NTMT1 C184,0.377
11,OSBPL3 C114 (UniProt Q9H4L5),-0.166
12,NUP155 C1344 (UniProt O75694),0.21
13,NSMAF C435 (UniProt Q92636),0.00105
14,NR2F6 C316 (UniProt P10588),0.0205
15,NSMCE1 C40 (UniProt Q8WV22),-0.289
16,NUP85 C51 (UniProt Q9BW27),0.24
17,NT5C3B C114 (UniProt Q969T7),-0.164
18,NUP54 C180 (UniProt Q7Z3B4),0.336

# Some of the entries so far, as tab-separated lines.
row	Target	log2 mean competition ratio
4	OSBPL6 C379 (UniProt Q9BZF3)	-0.313
5	OBSL1 C13 (UniProt O75147)	-0.0152
6	NVL C309 (UniProt O15381)	0.124
7	NR0B1 C255	0.0653
8	OGFR C443 (UniProt Q9NZT2)	0.135
9	NPLOC4 C130	-0.00353
10	NTMT1 C184	0.377
